Article PMC8572224
These are yes or no findings as the source states them, for the method shown. Binding seen in cells or lysates may run through a third protein. Some results given as binding are weak or reduced against the parent protein; the word gives no strength.

Amino acid sequences for entries named in this document (tags omitted).
UniProt Q96PU5: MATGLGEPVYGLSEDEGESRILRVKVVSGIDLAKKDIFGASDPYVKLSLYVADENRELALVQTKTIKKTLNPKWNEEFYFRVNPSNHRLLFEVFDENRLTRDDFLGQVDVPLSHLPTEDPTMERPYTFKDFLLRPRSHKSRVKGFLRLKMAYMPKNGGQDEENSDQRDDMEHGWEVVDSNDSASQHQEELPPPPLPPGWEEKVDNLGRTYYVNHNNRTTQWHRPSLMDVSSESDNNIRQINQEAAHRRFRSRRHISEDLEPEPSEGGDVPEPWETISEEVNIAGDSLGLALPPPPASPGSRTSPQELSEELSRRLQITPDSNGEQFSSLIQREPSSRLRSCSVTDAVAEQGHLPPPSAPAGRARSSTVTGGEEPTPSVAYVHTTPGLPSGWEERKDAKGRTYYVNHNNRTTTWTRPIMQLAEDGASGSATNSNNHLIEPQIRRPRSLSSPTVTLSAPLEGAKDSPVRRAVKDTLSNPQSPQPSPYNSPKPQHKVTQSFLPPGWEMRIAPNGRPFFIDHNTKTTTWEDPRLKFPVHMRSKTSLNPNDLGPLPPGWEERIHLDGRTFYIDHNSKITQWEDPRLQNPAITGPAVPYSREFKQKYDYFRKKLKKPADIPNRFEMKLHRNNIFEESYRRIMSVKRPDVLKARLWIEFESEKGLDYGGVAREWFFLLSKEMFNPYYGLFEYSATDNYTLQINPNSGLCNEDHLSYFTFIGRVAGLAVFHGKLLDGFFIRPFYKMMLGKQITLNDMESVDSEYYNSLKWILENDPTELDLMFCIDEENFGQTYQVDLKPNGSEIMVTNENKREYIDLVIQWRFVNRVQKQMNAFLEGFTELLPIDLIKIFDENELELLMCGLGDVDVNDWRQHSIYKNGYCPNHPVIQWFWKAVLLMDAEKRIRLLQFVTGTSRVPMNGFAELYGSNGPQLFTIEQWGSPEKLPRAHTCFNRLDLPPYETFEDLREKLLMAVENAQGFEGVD

Target: Neural precursor cell expressed developmentally downregulated 4-like (NEDD4L), endogenous (human (endogenous in A549, H1299, SPC-A1)) (UniProt Q96PU5)
Experiment: co-IP; endogenous proteins in lysates of A549, H1299 and SPC-A1 cells; antibody used to precipitate not given

B1: CPNE1 (copine 1), endogenous (protein, UniProt Q99829 1-537)
chain: MAHCVTLVQLSISCDHLIDKDIGSKSDPLCVLLQDVGGGSWAELGRTERVRNCSSPEFSKTLQLEYRFETVQKLRFGIYDIDNKTPELRDDDFLGGAECSLGQIVSSQVLTLPLMLKPGKPAGRGTITVSAQELKDNRVVTMEVEARNLDKKDFLGKSDPFLEFFRQGDGKWHLVYRSEVIKNNLNPTWKRFSVPVQHFCGGNPSTPIQVQCSDYDSDGSHDLIGTFHTSLAQLQAVPAEFECIHPEKQQKKKSYKNSGTIRVKICRVETEYSFLDYVMGGCQINFTVGVDFTGSNGDPSSPDSLHYLSPTGVNEYLMALWSVGSVVQDYDSDKLFPAFGFGAQVPPDWQVSHEFALNFNPSNPYCAGIQGIVDAYRQALPQVRLYGPTNFAPIINHVARFAAQAAHQGTASQYFMLLLLTDGAVTDVEATREAVVRASNLPMSVIIVGVGGADFEAMEQLDADGGPLHTRSGQAAARDIVQFVPYRRFQNAPREALAQTVLAEVPTQLVSYFRAQGWAPLKPLPPSAKDPAQAPQA
  binding: binds
